In PubChem BioAssay AID1671190 (National Center for Advancing Translational Sciences (NCATS), 2021):
Out of some 580,000 compounds screened, about 6,100 (1.1%) were called active. Inconclusive means that the source gave no clear call. Such entries were picked first, then a sample of the others. The call rests on the fitted dose curve; in most records, active means well fitted inhibition curve with a large enough effect; inconclusive means small, poorly fitted or top-dose-only effect, or another doubt; inactive means no such curve, though single readings can be large or run the other way. Potencies of inconclusive entries are doubtful fits and often do not repeat.

Amino acid sequences for entries named in this document (tags omitted).
UniProt P18054, whole entry, looked up: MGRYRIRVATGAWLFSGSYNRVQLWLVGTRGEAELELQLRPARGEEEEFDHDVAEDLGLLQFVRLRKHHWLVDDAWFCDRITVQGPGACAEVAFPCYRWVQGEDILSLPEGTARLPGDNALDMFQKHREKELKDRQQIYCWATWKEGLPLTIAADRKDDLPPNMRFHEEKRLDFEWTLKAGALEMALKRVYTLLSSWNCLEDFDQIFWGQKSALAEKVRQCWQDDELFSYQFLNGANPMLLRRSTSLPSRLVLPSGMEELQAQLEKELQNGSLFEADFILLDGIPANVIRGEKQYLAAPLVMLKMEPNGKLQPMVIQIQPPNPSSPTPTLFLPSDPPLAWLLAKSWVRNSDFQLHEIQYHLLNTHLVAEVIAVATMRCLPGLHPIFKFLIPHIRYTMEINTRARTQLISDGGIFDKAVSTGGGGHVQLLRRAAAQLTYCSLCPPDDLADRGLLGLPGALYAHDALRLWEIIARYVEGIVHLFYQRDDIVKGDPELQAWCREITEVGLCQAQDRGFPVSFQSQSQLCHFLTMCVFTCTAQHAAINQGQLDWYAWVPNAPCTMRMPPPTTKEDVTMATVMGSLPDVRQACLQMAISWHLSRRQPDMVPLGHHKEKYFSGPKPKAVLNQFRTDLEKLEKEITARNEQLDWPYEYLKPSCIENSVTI

What follows are compounds tested against Polyunsaturated fatty acid lipoxygenase ALOX12 (Homo sapiens) (UniProt P18054) (assay: Primary qHTS assay for inhibitors of human arachidonate 12S-lipoxygenase (ALOX12): Round 2). Details: purified 12hLO, xylenol orange hydroperoxide absorbance; series mostly up to 108 µM.
Text: Assay Provider: Theodore R. Holman Ph.D. University of California, Santa Cruz, California Human lipoxygenase 12hLO is a member of the closely related lipoxygenase family of enzymes which catalyze the site-specific oxidation of arachidonic acid to various hormone precursor molecules and as such is a candidate for drug development in a variety of disease areas, such as cancer and inflammation. Inhibition of 12hLO activity was screened by utilizing arachidonic acid as a substrate. The extent of hydroperoxide product formation was measured by a secondary chromogenic reaction in which xylenol orange (XO, Sigma-Aldrich, cat. number 39,818-7) reacts with the ferric ions produced from the reaction between the hydroperoxide and ferrous ions. The Fe (III)-XO complex is characterized with red-shifted absorbance at 560 nm. A purified preparation of human 12hLO was supplied by Dr. Holman laboratory, University of California, Santa Cruz.
PROTOCOL TABLE SEQUENCE No. (e.g., 1, 2, 3, etc.); […] (e.g., Cells, Incubation, Reagent, etc.); VALUE; DESCRIPTION 1; Enzyme; 3 uL; 150 nM 12hLO enzyme solution dispensed in 1536-well Greiner black, clear bottom plates. 2; Compound; 23 nL; compounds and controls were added. 3; Incubate; 15 min; room temperature. 4; Substrate; 1 uL; 40 uM arachidonic acid (final concentration). 5; Incubate; 30 min; room temperature. 6; Reagent; 4 uL; Fe-XO solution was added to each well. 7; Incubation; 30 min; room temperature 8; Detector; absorbance; Read 1 at 405 nm absorbance using ViewLux (Perkin-Elmer) CCD imager. 9; Detector; absorbance; Read 2 at 573 nm absorbance using ViewLux (Perkin-Elmer) CCD imager. NOTES (numbers refer to sequence above) 1; 150 nM 12hLO (final concentration) in buffer solution (25 mM Hepes, 0.01% Triton X-100, pH 7.0) was dispensed in columns 1, 2, 5-48. Column 1 is neutral (100% activity). Buffer only was dispensed in columns 3 and 4 as no enzyme negative controls. The plates were covered with metal lids with gas-exchange holes. 2; Compounds were pin transferred via a Kalypsys Pin Tool (Wako USA) in column 5-48. Control compound was transferred in column 2, titration of nordihydroguaiaretic acid (NDGA, Sigma-Aldrich, N5023) with top concentration of 20 mM in DMSO then 1:3 dilution in duplicate. Dilution factor of 23 nL into 4 uL final assay volume. 3; Covered assay plates were incubated for 15 min at room temperature. 4; Substrate was added to start the reaction; 40 uM arachidonic acid (Sigma-Aldrich, St. Louis, MO) was dispensed throughout the plate. 6; Chromogenic detection reagent solution (divalent iron/xylenol orange, Fe-XO) was added to each well: 200 uM xylenol orange, 300 uM ferrous ammonium sulfate prepared freshly in 50 mM sulfuric acid. 8, 9; Two absorbance readouts were obtained at 405 nm and at 573 nm using a ViewLux high-throughput CCD plate imager (Perkin-Elmer). The 573 to 405 (Read 2 / Read 1) absorbance ratio was used to compute reaction progress.
Potency means the concentration at half of the fitted maximal effect.

Row | Compound | Potency
1 | CCOc1ccc(C2=NC(c3cccs3)=Nc3ccc(C(C)C)cc3N2)cc1 | inactive
2 | COc1ccc(O)c(/C=N/NC(=O)c2c(C)nnn2-c2nonc2N)c1 | inactive
3 | Cc1nc2cc(NC(C)C(=O)Nc3ccc(Cl)cc3Cl)ccc2o1 (stereo not given) | inconclusive: 39.8 µM [inhibitor, partial curve, poor fit]
4 | Cc1c(/C=C(\C#N)C(=O)Nc2cccc(Cl)c2)c2ccccc2n1Cc1ccccc1Cl | inconclusive: 44.7 µM [inhibitor, partial curve, poor fit]
5 | N#Cc1c(OCC(=O)c2ccccc2)nc2c(c1-c1ccco1)CCc1ccccc1-2 | inconclusive: 35.5 µM [inhibitor, partial curve]
6 | CC(C)(C)c1ccc(C(=O)N/C(=C\c2ccc(Cl)cc2)C(=O)O)cc1 | inconclusive: 44.7 µM [inhibitor, partial curve, poor fit]
7 | O=C(Nc1ccc(Br)cc1)c1cccc(S(=O)(=O)Nc2cnc3ccccc3c2)c1 | inconclusive: 22.4 µM [inhibitor, full curve]
8 | CC(C)OC(=O)c1cc(C(=O)O)c(C(=O)OC(C)C)cc1C(=O)O | inconclusive: 100 µM [inhibitor, single point]
9 | COc1ccc(-c2c([C@H]3[C@@H]4C=CCC[C@@]4(C)C(=O)N3Cc3ccccc3)ccc3ccccc23)cc1OC | inactive
10 | CN1CCCC(n2nc(Cc3ccc(Cl)cc3)c3ccccc3c2=O)CC1 (stereo not given) | inconclusive: 2.17 µM [inhibitor, full curve]
11 | COCCNC(=O)CSc1nnc(NC(=O)C2CC(=O)N(c3ccccc3OC)C2)s1 (stereo not given) | inactive
12 | O=c1[nH]nc(Br)c(=O)n1C(c1ccccc1)c1ccccc1 | inconclusive: 89.1 µM [inhibitor, single point]
13 | C[C@H](NC(=O)c1ccc(Cl)cc1)C(=O)OCn1nnc2ccccc2c1=O | inactive
14 | Cc1ccc(NC(=O)CCl)cc1S(=O)(=O)N1CCCCCC1 | inactive
15 | O=C(Cn1cccc1-c1nc(-c2ccc(F)cc2)no1)NCc1ccc2c(c1)OCO2 | inconclusive: 89.1 µM [inhibitor, single point]
16 | CC(C)=CC(=O)N1CC[C@H](NC(=O)NC2CCCCC2)[C@H]1C(=O)N[C@H](Cc1c[nH]c2ccccc12)C(N)=O | inconclusive: 79.4 µM [inhibitor, partial curve, poor fit]
17 | O=C(Nc1ccc2c(c1)OCCO2)C1CCCN1C(=O)Nc1ccccc1 (stereo not given) | inconclusive: 112 µM [inhibitor, single point]
18 | COC(=O)Nc1sc2c(c1C(N)=O)CCCCCC2 | inactive
19 | CN(C)S(=O)(=O)c1ccc(NC(=O)CSc2nc3ccccc3n2-c2ccccc2)cc1 | inactive
20 | CCOC(=O)c1cccc(NC(=O)C(C)n2c(C)c3cnn(-c4ccccc4)c(=O)c3c2C)c1 (stereo not given) | inconclusive: 100 µM [inhibitor, partial curve, poor fit]

Copied from the list.
Value for COC(=O)Nc1sc2c(c1C(N)=O)CCCCCC2 under Potency: inactive
Value for O=C(Nc1ccc2c(c1)OCCO2)C1CCCN1C(=O)Nc1ccccc1 (stereo not given) under Potency: inconclusive: 112 µM [inhibitor, single point]

Next records.

Row | Compound | Potency
21 | Clc1nssc1=Nc1ccc(Br)cc1 | active: 3.98 µM
22 | Fc1ccc(CN2CCC3(CC(c4cccc(C(F)(F)F)c4)=NO3)C2)cc1 (stereo not given) | inconclusive: 89.1 µM [inhibitor, single point]
23 | CCOC(=O)N1CCC(Nc2cccc(SC)c2)CC1 | inconclusive: 39.8 µM [inhibitor, partial curve, poor fit]
24 | Cc1cc(C)cc(OC(C)C(=O)Nc2ccccc2C(=O)NCc2cccnc2)c1 (stereo not given) | inconclusive: 50.1 µM [inhibitor, partial curve, poor fit]
25 | CN(C(=O)CSc1ncnc2sc(-c3ccccc3)cc12)C1CCS(=O)(=O)C1 (stereo not given) | inactive
26 | O=C(/C=C/c1ccc(-c2ccccc2)s1)N(Cc1ccco1)C1CC1 | inconclusive: 10 µM [inhibitor, full curve, poor fit]
27 | CC(=O)Oc1ccc2c(=O)oc(-c3ccc([N+](=O)[O-])cc3)nc2c1 | inconclusive: 44.7 µM [inhibitor, single point]
28 | COc1cc(NC(=O)CSc2nc3nc(C)c(Cc4ccc(C)cc4)c(C)n3n2)cc(OC)c1 | inconclusive: 50.1 µM [inhibitor, partial curve, poor fit]
29 | O=C(Nc1ccccc1)c1ccc(-c2ccccc2C(F)(F)F)o1 | inconclusive: 39.8 µM [inhibitor, partial curve, poor fit]
30 | CCN(CC)Cc1c(O)ccc2c(-c3ccccc3)cc(=O)oc12 | inconclusive: 2.24 µM [inhibitor, full curve, poor fit]
31 | S=c1[nH]cnc2scc(-c3ccccc3)c12 | inconclusive: 39.8 µM [inhibitor, partial curve, poor fit]
32 | Cn1c(SCc2coc(-c3cccs3)n2)nnc1-c1ccccc1 | inconclusive: 2 µM [inhibitor, full curve, poor fit]
33 | C[C@@H]1CN([C@H](C)CO)C(=O)c2cc(NC(=O)Nc3ccc(C(F)(F)F)cc3)ccc2O[C@H]1CN(C)C(=O)Nc1ccc(F)cc1 | inconclusive: 50.1 µM [inhibitor, partial curve, poor fit]
34 | O=C(C[C@H]1C/C=C\CC[C@H](Cc2ccc(F)cc2)C(=O)O[C@H](c2ccccc2)CNC1=O)N[C@H](CO)Cc1ccccc1 | inconclusive: 112 µM [inhibitor, single point]
35 | COc1ccc2cc(-c3csc(-c4cccnc4)n3)ccc2c1 | inconclusive: 50.1 µM [inhibitor, partial curve, poor fit]
36 | Cc1ccc(CN2CCC(c3cc(-c4ccc(Cl)cc4)n[nH]3)CC2)cc1 | inconclusive: 39.8 µM [inhibitor, partial curve, poor fit]
37 | CCCSCCCNC(=O)c1ccc(Cn2c(=O)c3cccn3c3cccnc32)cc1 | inactive
38 | O=c1oc(-c2ccc(C(F)(F)F)cc2)nn1Cc1cc(Cl)ccc1O | inconclusive: 31.6 µM [inhibitor, single point]
39 | CC(CCc1ccccc1)NC(=O)c1cc2c(Cl)nc3ccccc3c2s1 (stereo not given) | inconclusive: 11.2 µM [inhibitor, partial curve, poor fit]
40 | COc1ccccc1CCc1nc(C2CC(=O)N(c3ccc(F)c(Cl)c3)C2)no1 (stereo not given) | inactive
